Assay results taken from patent US20210002378A1.
Results are given in words; binding and its absence hold for the method and conditions named. Some entries that bind do so weakly or less than the wild type. Blank lines part the entries; values can stand above or below the binder they belong to.

Sequences of proteins named here, by UniProt entry; tags and fusion partners are left off. Residues count along the entry.
UniProt D3ZZK3, residues 20-547: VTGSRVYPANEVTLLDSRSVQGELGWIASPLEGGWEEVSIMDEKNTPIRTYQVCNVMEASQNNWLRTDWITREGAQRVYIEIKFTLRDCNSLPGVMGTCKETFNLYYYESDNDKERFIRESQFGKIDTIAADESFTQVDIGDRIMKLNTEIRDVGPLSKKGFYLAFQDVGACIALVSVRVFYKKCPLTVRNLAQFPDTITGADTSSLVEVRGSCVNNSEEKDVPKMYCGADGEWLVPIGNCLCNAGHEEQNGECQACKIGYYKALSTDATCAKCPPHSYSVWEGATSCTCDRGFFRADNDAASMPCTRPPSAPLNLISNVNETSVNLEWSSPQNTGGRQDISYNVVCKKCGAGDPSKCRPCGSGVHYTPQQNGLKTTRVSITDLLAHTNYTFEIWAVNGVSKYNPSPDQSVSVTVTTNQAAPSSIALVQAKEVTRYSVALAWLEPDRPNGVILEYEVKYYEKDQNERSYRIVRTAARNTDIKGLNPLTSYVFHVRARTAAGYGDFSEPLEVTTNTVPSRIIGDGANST
UniProt P54764, residues 29-209: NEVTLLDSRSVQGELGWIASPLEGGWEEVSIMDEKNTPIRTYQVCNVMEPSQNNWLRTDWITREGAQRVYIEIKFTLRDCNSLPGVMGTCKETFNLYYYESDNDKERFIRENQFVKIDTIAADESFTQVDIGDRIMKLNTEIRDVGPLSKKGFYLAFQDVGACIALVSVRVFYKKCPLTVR

Key:
[1] = target: rat EphA4 extracellular region-SEAP-His protein (rat) (UniProt D3ZZK3); assay: ELISA, EphA4 extracellular region-SEAP-His captured by anti-alkaline phosphatase antibody, antibody titrated to 10 µg/mL
[2] = target: rat EphA4 extracellular region-SEAP-His protein (rat) (UniProt D3ZZK3); assay: ELISA: EphA4 extracellular region-SEAP-His (1 nM) captured by anti-alkaline phosphatase antibody, antibody B titrated, HRP anti-human IgG, OD 450 nm
[3] = target: rat EphA4 extracellular region-Fc-His protein (rat; human) (UniProt D3ZZK3); assay: ELISA, EphA4 extracellular region-Fc-His captured by anti-human IgG antibody, antibody titrated to 10 µg/mL
[4] = target: rat EphA4 extracellular region-Fc-His protein (rat; human) (UniProt D3ZZK3); assay: ELISA: EphA4 extracellular region-Fc-His (1 nM) captured by anti-human IgG antibody, antibody A titrated, HRP anti-mouse IgG, OD 450 nm
[5] = target: EphA4-Ligand Binding Domain (EphA4-LBD) (UniProt P54764); assay: complex purified by gel filtration and solved by X-ray crystallography

- binding [1]: binds
- binding [2]: binds
B1: humanized anti-EphA4 monoclonal antibody (antibody B) (antibody, V domains shown)
VH: QVQLVESGGGVVQPGRSLRLSCAVSGFSLTRFGVHWVRQAPGKGLEWVAVIWRGGSTDYNAAFMSRLTISKDNSKNTVYLQMNSLRAEDTAVYYCAKESLFGVYYDYGYYSMDYWGQGTTVTVSS
VL: DIQMTQSPSSLSASVGDRVTITCRASQEISGYLSWLQQKPGKAPKRLIYAASTLDSGVPSRFSGSRSGTEYTLTISSLQPEDFATYYCLQYASYPLTFGGGTKVEIKR

- binding [3]: binds
- binding [4]: binds
B2: mouse anti-EphA4 monoclonal antibody (antibody A) (antibody, mouse IgG1, kappa, V domains shown)
VH: QVQLKQSGPSLVQPSQSLSITCTVSGFSLTRYGVHWVRQSPGKGLEWLGVIWRGGSTDYNAAFMSRLSITKDNSKSQVFFKMNSLQADDTAIYYCAKESLFGVYYDYGYYSMDYWGQGTSVTVSS
VL: DIQMTQSPSSLSASLGERVSLTCRASQEISGYLSWLQQKPDGTIKRLIYAASTLDSGVPKRFSGSRSGSDYSLTISSLESEDFADYYCLQYASYPLTFGAGTKLELKR

- binding [5]: binds
B3: antibody A-Fab (Fab, V domains shown, not shown: a dimerising Fc or GST)
VH: B2 VH
VL: B2 VL
